This assay deals with Hut78 cells. The assay can be described thus: 72 h IC50 by Alamar blue assay in Hut78. Particulars: read-out: 1×IC50 value in Hut78 cells. It is filed as cell-based. The protocol: Experiments were carried out in 96-well plates and the cell lines seeded at a density of 2500/well for H1299, 2500/well or 3000/well for H460, 5000/well for HL-60 cells, and 8,000 cells/well for Hut78, MV4-11 and PL-21 cells. In the solid tumour cell lines (H460 and H1299) 24 h treatment and 72 h treatment IC50 values were determined for each compound using the Alamar blue assay, whereas only 72 h IC50 values were obtained in the suspension cell lines (Hut78, MV4-11, HL60 and PL21). Each compound was then tested in combination with CNDAC using three different treatment regimes: concomitant, CNDAC pre-treatment followed by HDAC inhibitor/topoisomerase inhibitor and CNDAC treatment after pre-treatment with HDAC inhibitor/topoisomerase inhibitor. […]
After drug treatment, the cell number in each well was then estimated by incubating the cells for 1 h in medium containing 10% alamar blue (Roche, Lewes, East Sussex, U.K.) and reading the absorbance at 544-595 nm. Drug interactions were analysed using the commercial software package Calcusyn, which is based on the median effect model of Chou and Talalay (Chou, T. C. & Talalay, P. (1984) Adv. Enzyme Regul. 22, 27-55. Quantitative analysis of dose-effect relationships: the combined effects of multiple drugs or enzyme inhibitors). […]
In general terms: Alamar Blue is a resazurin reagent that responds to reducing activity.

Usually IC50 stands for the midpoint of a concentration-inhibition curve. In the case of `O=C(CCCCCCC(=O)Nc1ccccc1)NO` [SAHA, suberoylanilide hydramic acid, reference compound], the IC50 worked out at 460 nM.

Values taken from US8349792B2, “Combination comprising CNDAC (2′-cyano-2′-deoxy-N4-palmitoyl-1-beta-D-arabinofuranosyl-cytosine) and a cytotoxic agent” (priority 2006, dated 2013).
